Measured values from the supplement of paper PMC10849652.
The other results are listed elsewhere or left out.

Amino acid sequences for entries named in this document (tags omitted). A change or cut given only in a name is not applied to a line headed by its entry.
UniProt Q15629: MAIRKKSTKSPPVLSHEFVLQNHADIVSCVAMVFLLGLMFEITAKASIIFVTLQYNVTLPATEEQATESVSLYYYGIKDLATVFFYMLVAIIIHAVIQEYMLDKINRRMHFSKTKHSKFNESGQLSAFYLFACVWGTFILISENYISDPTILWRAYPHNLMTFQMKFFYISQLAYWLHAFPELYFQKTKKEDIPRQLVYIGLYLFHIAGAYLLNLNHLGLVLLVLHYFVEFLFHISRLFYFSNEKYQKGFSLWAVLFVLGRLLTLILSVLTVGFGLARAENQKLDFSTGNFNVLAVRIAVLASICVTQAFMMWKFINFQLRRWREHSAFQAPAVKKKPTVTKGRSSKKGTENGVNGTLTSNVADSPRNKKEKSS
UniProt Q32P41: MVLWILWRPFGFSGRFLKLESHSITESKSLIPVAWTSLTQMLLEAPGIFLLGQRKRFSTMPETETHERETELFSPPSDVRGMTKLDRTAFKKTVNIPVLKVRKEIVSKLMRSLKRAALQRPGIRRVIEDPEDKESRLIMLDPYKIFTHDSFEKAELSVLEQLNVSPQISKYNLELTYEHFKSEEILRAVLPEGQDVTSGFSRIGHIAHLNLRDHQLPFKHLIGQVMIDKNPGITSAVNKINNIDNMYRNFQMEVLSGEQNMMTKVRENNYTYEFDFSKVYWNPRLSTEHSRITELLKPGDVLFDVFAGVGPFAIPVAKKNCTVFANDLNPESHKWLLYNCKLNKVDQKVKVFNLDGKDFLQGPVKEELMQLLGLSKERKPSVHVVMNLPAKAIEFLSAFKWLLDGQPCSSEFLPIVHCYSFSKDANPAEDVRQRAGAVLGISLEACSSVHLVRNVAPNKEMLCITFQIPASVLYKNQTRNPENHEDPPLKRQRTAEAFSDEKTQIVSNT
UniProt Q9UPN9: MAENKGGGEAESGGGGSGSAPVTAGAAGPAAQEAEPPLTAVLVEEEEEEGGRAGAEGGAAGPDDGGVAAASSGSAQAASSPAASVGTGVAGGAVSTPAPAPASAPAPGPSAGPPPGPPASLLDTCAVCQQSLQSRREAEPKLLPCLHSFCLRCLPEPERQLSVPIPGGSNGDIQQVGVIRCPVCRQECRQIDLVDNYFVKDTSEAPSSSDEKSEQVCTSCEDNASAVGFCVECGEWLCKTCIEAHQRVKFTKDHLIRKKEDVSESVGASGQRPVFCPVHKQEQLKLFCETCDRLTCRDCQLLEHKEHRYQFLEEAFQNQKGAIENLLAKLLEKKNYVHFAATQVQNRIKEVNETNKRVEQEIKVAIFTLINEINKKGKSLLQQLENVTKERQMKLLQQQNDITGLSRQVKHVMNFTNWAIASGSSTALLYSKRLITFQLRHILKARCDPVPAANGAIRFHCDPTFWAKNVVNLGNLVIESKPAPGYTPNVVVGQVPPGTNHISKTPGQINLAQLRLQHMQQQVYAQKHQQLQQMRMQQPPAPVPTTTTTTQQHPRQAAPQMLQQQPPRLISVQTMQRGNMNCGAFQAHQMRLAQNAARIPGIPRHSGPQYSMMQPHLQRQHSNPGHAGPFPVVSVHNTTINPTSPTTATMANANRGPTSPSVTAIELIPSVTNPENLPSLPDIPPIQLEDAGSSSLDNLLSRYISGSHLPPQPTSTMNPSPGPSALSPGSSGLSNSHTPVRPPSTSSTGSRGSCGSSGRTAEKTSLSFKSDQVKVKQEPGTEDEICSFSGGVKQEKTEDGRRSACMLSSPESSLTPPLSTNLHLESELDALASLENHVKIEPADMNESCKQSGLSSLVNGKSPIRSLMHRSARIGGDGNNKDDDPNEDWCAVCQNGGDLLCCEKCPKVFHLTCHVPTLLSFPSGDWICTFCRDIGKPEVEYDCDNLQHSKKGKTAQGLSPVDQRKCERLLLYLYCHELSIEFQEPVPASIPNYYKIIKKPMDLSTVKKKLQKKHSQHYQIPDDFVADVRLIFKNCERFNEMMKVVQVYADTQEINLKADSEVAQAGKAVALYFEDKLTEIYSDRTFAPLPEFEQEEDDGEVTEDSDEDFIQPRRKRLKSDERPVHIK
UniProt Q9NX07: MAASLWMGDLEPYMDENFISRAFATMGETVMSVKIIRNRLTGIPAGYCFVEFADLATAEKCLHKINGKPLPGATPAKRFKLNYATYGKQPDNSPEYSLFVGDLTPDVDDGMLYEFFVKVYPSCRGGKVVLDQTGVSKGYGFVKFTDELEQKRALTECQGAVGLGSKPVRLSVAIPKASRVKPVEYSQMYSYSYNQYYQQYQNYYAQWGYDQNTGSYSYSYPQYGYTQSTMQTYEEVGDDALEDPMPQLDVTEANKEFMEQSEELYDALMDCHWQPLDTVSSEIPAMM
UniProt Q5R3I4: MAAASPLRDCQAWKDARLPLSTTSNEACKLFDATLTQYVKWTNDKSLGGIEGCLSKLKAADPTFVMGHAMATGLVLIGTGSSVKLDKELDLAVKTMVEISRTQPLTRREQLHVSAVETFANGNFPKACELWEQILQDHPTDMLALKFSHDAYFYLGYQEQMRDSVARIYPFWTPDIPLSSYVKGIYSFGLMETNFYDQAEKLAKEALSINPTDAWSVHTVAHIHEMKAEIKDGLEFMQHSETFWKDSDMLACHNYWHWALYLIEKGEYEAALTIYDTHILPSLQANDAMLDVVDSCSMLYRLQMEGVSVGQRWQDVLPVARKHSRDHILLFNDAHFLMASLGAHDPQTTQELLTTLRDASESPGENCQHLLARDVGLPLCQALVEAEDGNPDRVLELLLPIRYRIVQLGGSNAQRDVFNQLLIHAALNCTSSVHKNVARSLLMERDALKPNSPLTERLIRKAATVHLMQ
UniProt Q9Y5R8, whole entry, looked up: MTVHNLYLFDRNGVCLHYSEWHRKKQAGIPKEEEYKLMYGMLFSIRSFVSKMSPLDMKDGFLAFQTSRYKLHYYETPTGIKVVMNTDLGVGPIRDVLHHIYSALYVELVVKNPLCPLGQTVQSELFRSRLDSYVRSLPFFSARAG
UniProt Q53H54: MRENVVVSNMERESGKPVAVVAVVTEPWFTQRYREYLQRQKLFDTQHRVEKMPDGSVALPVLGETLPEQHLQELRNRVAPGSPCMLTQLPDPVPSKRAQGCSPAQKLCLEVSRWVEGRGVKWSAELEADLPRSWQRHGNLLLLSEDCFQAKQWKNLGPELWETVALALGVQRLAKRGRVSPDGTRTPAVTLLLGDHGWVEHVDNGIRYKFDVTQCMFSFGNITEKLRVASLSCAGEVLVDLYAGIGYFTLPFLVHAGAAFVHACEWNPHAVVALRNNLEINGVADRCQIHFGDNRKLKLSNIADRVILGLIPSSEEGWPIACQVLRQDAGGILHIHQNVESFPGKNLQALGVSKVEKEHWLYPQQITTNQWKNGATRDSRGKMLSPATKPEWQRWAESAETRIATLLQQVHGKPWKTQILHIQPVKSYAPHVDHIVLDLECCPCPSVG
UniProt Q14258, whole entry, looked up: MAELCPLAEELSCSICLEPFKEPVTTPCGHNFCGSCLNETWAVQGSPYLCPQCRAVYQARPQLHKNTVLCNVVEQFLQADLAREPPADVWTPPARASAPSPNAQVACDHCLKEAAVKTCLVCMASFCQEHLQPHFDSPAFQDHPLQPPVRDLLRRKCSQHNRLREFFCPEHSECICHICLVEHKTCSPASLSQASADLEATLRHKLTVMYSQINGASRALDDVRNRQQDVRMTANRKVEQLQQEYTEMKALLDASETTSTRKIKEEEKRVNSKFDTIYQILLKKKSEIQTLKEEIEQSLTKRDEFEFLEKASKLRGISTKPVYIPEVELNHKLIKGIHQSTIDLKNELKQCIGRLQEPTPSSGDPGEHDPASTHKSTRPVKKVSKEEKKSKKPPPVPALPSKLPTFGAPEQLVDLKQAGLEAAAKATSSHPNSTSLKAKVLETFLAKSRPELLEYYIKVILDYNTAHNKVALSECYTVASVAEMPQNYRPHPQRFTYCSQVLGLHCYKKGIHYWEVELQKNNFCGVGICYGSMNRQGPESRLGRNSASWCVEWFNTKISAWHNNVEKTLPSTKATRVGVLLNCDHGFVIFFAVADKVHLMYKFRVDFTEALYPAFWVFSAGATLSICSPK
UniProt Q9Y296, whole entry, looked up: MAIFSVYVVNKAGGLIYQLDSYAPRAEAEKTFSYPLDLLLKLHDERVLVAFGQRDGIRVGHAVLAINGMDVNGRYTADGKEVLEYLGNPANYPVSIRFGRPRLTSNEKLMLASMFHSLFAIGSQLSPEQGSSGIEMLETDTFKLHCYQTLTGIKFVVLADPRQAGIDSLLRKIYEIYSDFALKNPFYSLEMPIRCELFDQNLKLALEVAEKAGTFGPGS
UniProt Q9UJK0: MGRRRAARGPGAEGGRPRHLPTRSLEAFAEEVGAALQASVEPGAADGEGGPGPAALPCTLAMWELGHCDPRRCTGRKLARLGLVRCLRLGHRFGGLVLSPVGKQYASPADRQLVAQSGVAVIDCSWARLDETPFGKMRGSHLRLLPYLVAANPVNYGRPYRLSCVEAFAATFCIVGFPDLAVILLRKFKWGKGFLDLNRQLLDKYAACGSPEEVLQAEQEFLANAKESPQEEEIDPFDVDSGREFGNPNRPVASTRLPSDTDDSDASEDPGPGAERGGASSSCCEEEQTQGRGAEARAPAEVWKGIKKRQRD
UniProt Q9H892: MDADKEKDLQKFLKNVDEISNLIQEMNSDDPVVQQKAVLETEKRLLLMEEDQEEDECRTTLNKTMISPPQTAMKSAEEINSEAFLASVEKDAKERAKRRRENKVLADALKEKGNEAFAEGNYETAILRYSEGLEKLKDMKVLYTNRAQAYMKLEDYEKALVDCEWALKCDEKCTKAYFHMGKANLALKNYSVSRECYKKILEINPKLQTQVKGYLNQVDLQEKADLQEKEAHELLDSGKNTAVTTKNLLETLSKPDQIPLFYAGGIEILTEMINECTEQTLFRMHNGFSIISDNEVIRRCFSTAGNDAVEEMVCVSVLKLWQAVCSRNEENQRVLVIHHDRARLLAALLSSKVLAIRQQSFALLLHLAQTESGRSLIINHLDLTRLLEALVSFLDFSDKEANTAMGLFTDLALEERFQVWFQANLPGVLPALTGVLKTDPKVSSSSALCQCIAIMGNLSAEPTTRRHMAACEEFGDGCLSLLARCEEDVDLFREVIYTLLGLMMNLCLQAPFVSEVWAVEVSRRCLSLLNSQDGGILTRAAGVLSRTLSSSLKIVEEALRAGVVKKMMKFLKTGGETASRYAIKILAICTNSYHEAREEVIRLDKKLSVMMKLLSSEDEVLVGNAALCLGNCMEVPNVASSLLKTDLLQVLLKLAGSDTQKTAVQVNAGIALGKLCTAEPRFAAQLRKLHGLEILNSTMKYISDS
UniProt O95857: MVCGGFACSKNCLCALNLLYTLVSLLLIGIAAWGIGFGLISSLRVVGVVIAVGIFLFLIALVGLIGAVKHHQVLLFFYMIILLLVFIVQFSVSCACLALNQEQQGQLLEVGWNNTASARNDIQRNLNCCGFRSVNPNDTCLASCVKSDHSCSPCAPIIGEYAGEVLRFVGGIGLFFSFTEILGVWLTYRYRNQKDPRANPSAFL
UniProt Q8NCE0: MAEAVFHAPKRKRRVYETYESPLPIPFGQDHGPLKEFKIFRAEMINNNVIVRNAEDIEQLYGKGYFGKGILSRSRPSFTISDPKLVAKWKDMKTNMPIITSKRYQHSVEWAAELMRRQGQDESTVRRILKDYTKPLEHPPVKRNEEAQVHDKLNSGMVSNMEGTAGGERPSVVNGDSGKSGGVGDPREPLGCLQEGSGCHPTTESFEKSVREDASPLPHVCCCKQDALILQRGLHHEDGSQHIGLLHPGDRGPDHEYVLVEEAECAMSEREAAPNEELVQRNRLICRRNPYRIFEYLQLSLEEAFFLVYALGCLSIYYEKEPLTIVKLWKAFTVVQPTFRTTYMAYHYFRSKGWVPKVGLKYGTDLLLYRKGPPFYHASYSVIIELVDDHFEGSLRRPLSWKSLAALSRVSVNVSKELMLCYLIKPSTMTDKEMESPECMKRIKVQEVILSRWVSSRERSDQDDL

Key:
Experiment in all cases: log2 fold change, soluble protein after heating vs DMSO (PISA); higher = thermal stabilisation; K562 lysate, 10 uM; active = over 0.2 and 3.5 SD of the protein, either way, in both replicates (recomputed)
[1] = compound: C#Cc1cccc(Nc2ncnc3cc(OCCOC)c(OCCOC)cc23)c1 [erlotinib]
In short: (§1)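 Values give the log-two fold change in thermal stability against solvent controls, from duplicates. Crude K562 extract at 1 mg/mL protein, made by dounce homogenisation in PBS pH 7.4 with 1 mM MgCl2, was treated with 10 μM compound for 30 min. After 3 min heating across 48°C-58°C, aliquots were pooled, adjusted to 0.5% NP-40 at 4°C and centrifuged at 21,000xg for 90 min. The supernatant was measured by TMTpro 16plex LC-MS/MS with channel sums equalised.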

[2] = compound: C/C(=N\NC(=O)C1=CC(=CC=C1)S(=O)(=O)N2CCOCC2)/C3=C(C=CC(=C3)Cl)O
In short: as §1

[3] = compound: C1=CC(=CC=C1C2=NC3=C(N2)C=C(C=C3)C(=O)N)OC4=CC=C(C=C4)Cl
In short: as §1

[4] = compound: C1=CC2=C(C=CC(=C2)/C=C\3/C(=O)NC(=NCC4=CC=CS4)S3)N=C1
In short: as §1

[5] = compound: C1=CC2=NC=CN=C2C=C1/C=C/3\C(=O)NC(=O)S3
In short: as §1

[6] = compound: C1=CC=C(C=C1)C2=NC(=C(N2)C3=CC=NC=C3)C4=CC(=C(C=C4)Cl)O
In short: as §1

[7] = compound: C1=CC=C2C(=C1)C3=NNC4=CC=CC(=C43)C2=O
In short: as §1

[8] = compound: C1CCN(C1)C(=O)NC2=CC=CC(=C2)NC3=NC=C(C(=N3)NCCC4=CN=CN4)Br
In short: as §1

[9] = compound: C1CN(CCC1(CC2=CC=C(C=C2)Cl)N)C3=NC=NC4=C3C=CN4
In short: as §1

[10] = compound: C1COCCN1CCN2C3=CC=CC=C3N=C2NC(=O)C4=CC(=CC=C4)[N+](=O)[O-] [IRAK-1-4 Inhibitor I]
In short: as §1

[11] = compound: C=CC(=O)N1CCC[C@@H](n2nc(-c3ccc(Oc4ccccc4)cc3)c3c(N)ncnc32)C1 [ibrutinib]
In short: as §1

[12] = compound: CC(=O)c1cnc2ccc(-c3cc(Cl)c(O)c(Cl)c3)nc2c1N[C@H]1CC[C@H](CN(C)C)CC1
In short: as §1

[13] = compound: CC(C)(C)Cn1c(N)nc2ccc(-c3[nH]c(C(C)(C)C)nc3-c3ccc(F)cc3)nc21 [ralimetinib]
In short: as §1

[14] = compound: CC(C)(O)CC(=O)NCCn1ccc2ncnc(Nc3ccc(Oc4cccc(C(F)(F)F)c4)c(Cl)c3)c21
In short: as §1

[15] = compound: CC(C)C1=C2N=C(C=C(N2N=C1)NCC3=CC=CC=C3)NCCCCCCN
In short: as §1

[16] = compound: CC1=C(C(CC(=O)N1)C2=CC=C(C=C2)C(F)(F)F)C(=O)NC3=C(C=C4C(=C3)C=NN4)F
In short: as §1

[17] = compound: CC1=C(C2=C(C=C1)C(=O)C3=CC=CC=C3N2CCCN)C
In short: as §1

[18] = compound: CC1=C(C=C(C=C1)NC(=O)C2=CC(=CC=C2)C(C)(C)C#N)NC3=CC4=C(C=C3)N=CN(C4=O)C
In short: as §1

[19] = compound: CC1=C(C=C(C=C1)NC(=O)C2=CC(=CC=C2)N(C)C)NC(=O)C3=CC=C(C=C3)O
In short: as §1

[20] = compound: CC1=CC=C(C=C1)SC2=C3C=C(SC3=CN=C2)C(=O)N
In short: as §1

| Target | log2 fold change [1] | log2 fold change [2] | log2 fold change [3] | log2 fold change [4] | log2 fold change [5] | log2 fold change [6] | log2 fold change [7] | log2 fold change [8] | log2 fold change [9] | log2 fold change [10] | log2 fold change [11] | log2 fold change [12] | log2 fold change [13] | log2 fold change [14] | log2 fold change [15] | log2 fold change [16] | log2 fold change [17] | log2 fold change [18] | log2 fold change [19] | log2 fold change [20] |
| --- | --- | --- | --- | --- | --- | --- | --- | --- | --- | --- | --- | --- | --- | --- | --- | --- | --- | --- | --- | --- |
| TRAM1 (UniProt Q15629) | inactive: -0.029 | inactive: -0.065 | inactive: -0.271 | inactive: -0.012 | inactive: 0.102 | inactive: -0.039 | inactive: -0.095 | inactive: 0.002 | inactive: 0.007 | inactive: 0.012 | inactive: -0.042 | inactive: 0.003 | inactive: 0.048 | inactive: -0.189 | inactive: -0.038 | inactive: 0.065 | inactive: -0.067 | inactive: 0.028 | inactive: -0.026 | inactive: 0.018 |
| TRMT5 (UniProt Q32P41) | inactive: 0.007 | inactive: 0.077 | inactive: -0.071 | inactive: 0.076 | inactive: 0.016 | inactive: -0.016 | inactive: -0.1 | inactive: 0.014 | inactive: 0.012 | inactive: -0.026 | inactive: 0.017 | inactive: -0.029 | inactive: 0.02 | inactive: 0.024 | inactive: 0.005 | inactive: 0.037 | inactive: 0.002 | inactive: -0.005 | inactive: 0.034 | inactive: 0.022 |
| TRIM33 isoform 2 (UniProt Q9UPN9) | inactive: 0.004 | inactive: -0.016 | inactive: 0.014 | inactive: 0.004 | inactive: -0.002 | inactive: 0.003 | inactive: 0.008 | inactive: -0.03 | inactive: 0.006 | inactive: -0.02 | inactive: 0.04 | inactive: 0.006 | inactive: 0.024 | inactive: 0.022 | inactive: -0.026 | inactive: 0.01 | inactive: 0 | inactive: -0.014 | inactive: 0.019 | inactive: 0.005 |
| TRNAU1AP (UniProt Q9NX07) | inactive: 0.019 | inactive: 0.083 | inactive: -0.037 | inactive: 0.114 | inactive: 0.038 | inactive: -0.028 | inactive: -0.31 | inactive: -0.071 | inactive: 0.015 | inactive: -0.005 | inactive: -0.013 | inactive: -0.212 | inactive: 0.07 | inactive: -0.045 | inactive: 0.039 | inactive: -0.008 | inactive: 0.02 | inactive: -0.035 | inactive: 0.034 | inactive: 0.021 |
| TTC38 (UniProt Q5R3I4) | inactive: 0.037 | inactive: 0.015 | inactive: 0.009 | inactive: 0.039 | inactive: 0.007 | inactive: 0.035 | inactive: -0.022 | inactive: -0.003 | inactive: 0.068 | inactive: -0.004 | inactive: -0.049 | inactive: 0.033 | inactive: 0.008 | inactive: 0.007 | inactive: -0.011 | inactive: 0.005 | active: 0.332 | inactive: -0.013 | inactive: 0.067 | inactive: 0.014 |
| TRPC4AP (UniProt Q8TEL6) | inactive: 0.009 | inactive: -0.039 | inactive: -0.027 | inactive: -0.036 | inactive: -0.006 | inactive: -0.004 | inactive: 0.031 | inactive: 0.03 | inactive: 0.016 | inactive: -0.005 | inactive: -0.074 | inactive: 0.013 | inactive: 0.027 | inactive: -0.029 | inactive: 0.007 | inactive: 0.018 | inactive: -0.041 | inactive: 0.003 | inactive: 0.046 | inactive: 0.083 |
| TRAPPC1 (UniProt Q9Y5R8) | inactive: 0.017 | inactive: 0.036 | inactive: 0.055 | inactive: 0.069 | inactive: -0.104 | inactive: -0.028 | inactive: 0.011 | inactive: 0.005 | inactive: -0.01 | inactive: 0.01 | inactive: -0.001 | inactive: -0.025 | inactive: -0.051 | inactive: 0.024 | inactive: -0.001 | inactive: -0.018 | inactive: 0.01 | inactive: 0.009 | inactive: 0.025 | inactive: -0.001 |
| TRMT12 (UniProt Q53H54) | inactive: 0.065 | inactive: 0.01 | inactive: 0.018 | inactive: 0.058 | inactive: -0.044 | inactive: 0.106 | inactive: -0.047 | inactive: -0.064 | inactive: 0.07 | inactive: -0.03 | inactive: -0.083 | inactive: -0.009 | inactive: 0.094 | inactive: 0.063 | inactive: -0.018 | inactive: -0.081 | inactive: -0.048 | inactive: 0.036 | inactive: 0.033 | inactive: -0.031 |
| TRIM25 (UniProt Q14258) | inactive: -0.01 | inactive: -0.024 | inactive: 0.028 | inactive: -0.004 | inactive: -0.028 | inactive: 0.032 | inactive: 0.008 | inactive: 0.064 | inactive: 0.021 | inactive: -0.009 | inactive: -0.001 | inactive: -0.001 | inactive: -0.013 | inactive: 0.055 | inactive: -0.011 | inactive: -0.002 | inactive: -0.005 | inactive: 0.005 | inactive: 0.004 | inactive: 0.006 |
| TRPV2 (UniProt Q9Y5S1) | inactive: -0.005 | inactive: -0.018 | inactive: 0.019 | inactive: 0.011 | inactive: 0.016 | inactive: 0.011 | inactive: -0.009 | inactive: 0.011 | inactive: 0 | inactive: -0.022 | inactive: 0.013 | inactive: -0.008 | inactive: -0.009 | inactive: -0.008 | inactive: -0.022 | inactive: -0.009 | inactive: -0.011 | inactive: -0.006 | inactive: -0.016 | inactive: -0.008 |
| TRAPPC4 (UniProt Q9Y296) | inactive: -0.004 | inactive: -0.09 | inactive: 0.022 | inactive: 0.026 | inactive: -0.026 | inactive: -0.014 | inactive: -0.055 | inactive: -0.008 | inactive: 0.04 | inactive: -0.02 | inactive: -0.054 | inactive: -0.009 | inactive: -0.021 | inactive: -0.017 | inactive: -0.014 | inactive: -0.049 | inactive: -0.015 | inactive: 0.002 | inactive: 0.032 | inactive: 0.007 |
| TSR3 (UniProt Q9UJK0) | inactive: 0.032 | inactive: -0.064 | inactive: -0.029 | inactive: 0.005 | inactive: -0.036 | inactive: 0.041 | inactive: -0.019 | inactive: 0.016 | inactive: 0.004 | inactive: 0.015 | inactive: 0.058 | inactive: 0.004 | inactive: -0.018 | inactive: -0.023 | inactive: -0.019 | inactive: -0.012 | inactive: -0.039 | inactive: 0.101 | inactive: 0.018 | inactive: -0.014 |
| TTC12 isoform 2 (UniProt Q9H892) | inactive: 0.066 | inactive: -0.051 | inactive: 0.055 | inactive: 0.007 | inactive: -0.081 | inactive: -0.037 | inactive: -0.019 | inactive: -0.006 | inactive: 0.034 | inactive: 0.231 | inactive: -0.002 | inactive: -0.073 | inactive: 0.053 | inactive: 0.128 | inactive: -0.032 | inactive: -0.049 | inactive: -0.042 | inactive: 0.037 | inactive: -0.14 | inactive: -0.003 |
| TRIM33 (UniProt H0Y612) | inactive: -0.006 | inactive: -0.002 | inactive: 0.05 | inactive: -0.126 | inactive: -0.071 | inactive: -0.01 | inactive: -0.009 | inactive: -0.065 | inactive: -0.023 | inactive: 0.176 | inactive: 0.016 | inactive: -0.003 | inactive: 0.135 | inactive: -0.084 | inactive: 0.068 | inactive: -0.099 | inactive: -0.004 | inactive: -0.031 | inactive: -0.009 | inactive: -0.012 |
| TSPAN13 (UniProt O95857) | inactive: 0.002 | inactive: 0.053 | inactive: 0.06 | inactive: 0.003 | inactive: -0.002 | inactive: 0.008 | inactive: -0.167 | inactive: 0.202 | inactive: -0.053 | inactive: -0.051 | inactive: 0.018 | inactive: -0.001 | inactive: -0.048 | inactive: -0.044 | inactive: -0.083 | inactive: 0.102 | inactive: 0.036 | inactive: 0.088 | inactive: 0 | inactive: -0.043 |
| TSEN2 (UniProt Q8NCE0) | inactive: 0.064 | inactive: 0.054 | inactive: 0.069 | inactive: -0.07 | inactive: -0.001 | inactive: -0.026 | inactive: 0.004 | inactive: -0.037 | inactive: -0.021 | inactive: 0 | inactive: -0.001 | inactive: 0.057 | inactive: 0.122 | inactive: -0.049 | inactive: -0.11 | inactive: 0.017 | inactive: -0.066 | inactive: -0.002 | inactive: 0.085 | inactive: 0.021 |

Single values from the entries so far:
Under log2 fold change [9], TRIM25 (UniProt Q14258) is listed with inactive: 0.021
Under log2 fold change [10], TRPV2 (UniProt Q9Y5S1) is listed with inactive: -0.022
